Data on 1 substance can be found in paper PMC5826258.

Chains of the proteins cited; added tags and fusions are not shown.
UniProt Q923J1: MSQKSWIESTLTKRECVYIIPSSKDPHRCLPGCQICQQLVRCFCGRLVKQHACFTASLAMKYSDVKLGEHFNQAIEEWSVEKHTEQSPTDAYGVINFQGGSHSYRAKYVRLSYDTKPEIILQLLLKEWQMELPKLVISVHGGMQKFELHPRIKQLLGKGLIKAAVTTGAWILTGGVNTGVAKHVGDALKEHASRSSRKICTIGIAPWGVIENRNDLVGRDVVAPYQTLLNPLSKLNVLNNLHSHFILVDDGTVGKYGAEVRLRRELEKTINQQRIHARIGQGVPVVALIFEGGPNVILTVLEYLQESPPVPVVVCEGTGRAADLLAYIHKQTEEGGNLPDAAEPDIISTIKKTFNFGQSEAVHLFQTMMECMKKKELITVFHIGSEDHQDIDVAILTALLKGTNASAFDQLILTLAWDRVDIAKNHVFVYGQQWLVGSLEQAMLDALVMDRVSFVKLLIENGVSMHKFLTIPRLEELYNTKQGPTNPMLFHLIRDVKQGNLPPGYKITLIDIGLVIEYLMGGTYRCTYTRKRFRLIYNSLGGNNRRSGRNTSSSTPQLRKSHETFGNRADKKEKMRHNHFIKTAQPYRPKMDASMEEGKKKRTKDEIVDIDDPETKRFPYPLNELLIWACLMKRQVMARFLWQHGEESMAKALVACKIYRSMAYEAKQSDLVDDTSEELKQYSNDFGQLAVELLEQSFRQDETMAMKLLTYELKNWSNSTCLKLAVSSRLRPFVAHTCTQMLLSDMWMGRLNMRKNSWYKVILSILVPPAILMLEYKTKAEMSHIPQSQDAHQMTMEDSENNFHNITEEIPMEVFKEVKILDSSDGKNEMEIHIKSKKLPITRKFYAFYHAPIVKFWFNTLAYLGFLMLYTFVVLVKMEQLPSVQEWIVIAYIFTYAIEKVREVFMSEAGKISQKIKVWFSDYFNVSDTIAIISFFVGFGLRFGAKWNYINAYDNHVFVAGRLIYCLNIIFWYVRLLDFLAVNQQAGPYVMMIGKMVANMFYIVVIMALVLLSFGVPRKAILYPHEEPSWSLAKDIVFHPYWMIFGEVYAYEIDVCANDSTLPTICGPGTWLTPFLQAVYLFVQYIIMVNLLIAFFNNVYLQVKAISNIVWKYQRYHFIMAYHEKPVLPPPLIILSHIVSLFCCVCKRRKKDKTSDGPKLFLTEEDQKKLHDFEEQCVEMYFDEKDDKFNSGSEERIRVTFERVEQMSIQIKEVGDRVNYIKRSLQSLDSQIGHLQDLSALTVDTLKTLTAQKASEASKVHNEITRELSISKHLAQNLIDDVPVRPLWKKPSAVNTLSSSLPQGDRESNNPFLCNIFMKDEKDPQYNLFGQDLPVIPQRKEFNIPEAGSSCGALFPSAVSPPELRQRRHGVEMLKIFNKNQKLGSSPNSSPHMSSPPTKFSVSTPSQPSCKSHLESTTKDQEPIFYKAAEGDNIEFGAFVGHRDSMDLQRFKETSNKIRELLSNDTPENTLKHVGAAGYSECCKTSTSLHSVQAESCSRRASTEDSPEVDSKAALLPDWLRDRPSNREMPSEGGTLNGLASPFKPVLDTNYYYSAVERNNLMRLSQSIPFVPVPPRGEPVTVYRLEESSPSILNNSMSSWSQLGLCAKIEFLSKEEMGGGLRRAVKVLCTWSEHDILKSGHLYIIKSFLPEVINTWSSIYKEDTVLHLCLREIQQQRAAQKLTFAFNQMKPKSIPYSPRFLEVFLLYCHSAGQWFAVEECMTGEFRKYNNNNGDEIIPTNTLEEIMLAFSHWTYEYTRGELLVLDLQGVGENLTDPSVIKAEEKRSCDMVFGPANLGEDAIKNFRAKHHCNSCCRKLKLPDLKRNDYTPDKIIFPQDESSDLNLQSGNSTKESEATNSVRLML
UniProt Q8CIR4: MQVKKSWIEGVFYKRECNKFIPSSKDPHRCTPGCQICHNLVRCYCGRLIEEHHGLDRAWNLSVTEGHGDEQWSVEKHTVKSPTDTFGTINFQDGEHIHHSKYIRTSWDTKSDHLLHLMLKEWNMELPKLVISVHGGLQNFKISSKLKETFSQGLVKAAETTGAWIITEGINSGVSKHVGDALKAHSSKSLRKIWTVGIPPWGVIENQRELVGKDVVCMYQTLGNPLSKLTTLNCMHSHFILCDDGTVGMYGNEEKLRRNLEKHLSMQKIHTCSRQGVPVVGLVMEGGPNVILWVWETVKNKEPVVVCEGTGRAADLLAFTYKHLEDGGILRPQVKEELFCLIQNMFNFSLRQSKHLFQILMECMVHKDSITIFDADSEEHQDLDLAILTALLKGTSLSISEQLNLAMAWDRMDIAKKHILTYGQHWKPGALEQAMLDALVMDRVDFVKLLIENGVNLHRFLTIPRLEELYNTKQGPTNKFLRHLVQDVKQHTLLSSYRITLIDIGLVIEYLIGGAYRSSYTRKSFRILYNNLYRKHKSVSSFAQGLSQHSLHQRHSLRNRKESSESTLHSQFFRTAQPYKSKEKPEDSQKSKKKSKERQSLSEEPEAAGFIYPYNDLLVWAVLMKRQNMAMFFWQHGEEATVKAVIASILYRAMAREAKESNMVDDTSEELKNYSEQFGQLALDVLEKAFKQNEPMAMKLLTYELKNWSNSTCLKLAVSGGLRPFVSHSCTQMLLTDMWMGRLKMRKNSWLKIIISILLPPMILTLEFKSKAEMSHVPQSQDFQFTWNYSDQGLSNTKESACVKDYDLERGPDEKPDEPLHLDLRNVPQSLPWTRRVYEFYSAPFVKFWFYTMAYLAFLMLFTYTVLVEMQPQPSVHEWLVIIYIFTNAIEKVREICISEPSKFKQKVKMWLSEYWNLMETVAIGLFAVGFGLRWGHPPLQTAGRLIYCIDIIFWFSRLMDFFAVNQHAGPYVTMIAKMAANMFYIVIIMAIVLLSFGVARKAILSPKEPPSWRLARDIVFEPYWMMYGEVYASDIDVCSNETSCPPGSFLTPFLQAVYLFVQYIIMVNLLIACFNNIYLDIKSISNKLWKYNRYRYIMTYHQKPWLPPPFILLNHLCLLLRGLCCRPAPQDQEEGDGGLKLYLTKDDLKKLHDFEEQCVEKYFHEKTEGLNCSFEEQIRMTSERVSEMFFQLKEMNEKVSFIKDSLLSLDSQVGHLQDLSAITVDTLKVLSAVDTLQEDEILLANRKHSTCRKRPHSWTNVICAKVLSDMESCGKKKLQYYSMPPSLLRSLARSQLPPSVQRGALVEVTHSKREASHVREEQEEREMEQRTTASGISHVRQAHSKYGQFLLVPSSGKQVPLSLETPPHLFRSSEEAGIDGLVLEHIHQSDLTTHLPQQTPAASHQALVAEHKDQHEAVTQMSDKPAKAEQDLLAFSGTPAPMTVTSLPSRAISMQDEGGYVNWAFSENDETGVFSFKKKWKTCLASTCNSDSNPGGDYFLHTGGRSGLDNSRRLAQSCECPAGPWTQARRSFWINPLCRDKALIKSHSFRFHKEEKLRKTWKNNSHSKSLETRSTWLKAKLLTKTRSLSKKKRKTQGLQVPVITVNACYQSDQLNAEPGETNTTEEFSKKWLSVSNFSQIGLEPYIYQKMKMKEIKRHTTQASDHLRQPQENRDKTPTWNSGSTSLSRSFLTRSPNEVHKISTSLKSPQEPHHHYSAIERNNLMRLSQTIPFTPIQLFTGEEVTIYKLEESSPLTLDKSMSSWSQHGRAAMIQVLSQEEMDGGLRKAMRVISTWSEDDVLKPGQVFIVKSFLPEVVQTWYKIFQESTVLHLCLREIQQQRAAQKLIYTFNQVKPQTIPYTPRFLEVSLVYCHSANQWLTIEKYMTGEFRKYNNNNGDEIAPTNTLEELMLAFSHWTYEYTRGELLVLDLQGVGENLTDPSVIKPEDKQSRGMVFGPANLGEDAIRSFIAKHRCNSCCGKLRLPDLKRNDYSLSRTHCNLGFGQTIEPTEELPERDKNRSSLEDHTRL
UniProt P11142: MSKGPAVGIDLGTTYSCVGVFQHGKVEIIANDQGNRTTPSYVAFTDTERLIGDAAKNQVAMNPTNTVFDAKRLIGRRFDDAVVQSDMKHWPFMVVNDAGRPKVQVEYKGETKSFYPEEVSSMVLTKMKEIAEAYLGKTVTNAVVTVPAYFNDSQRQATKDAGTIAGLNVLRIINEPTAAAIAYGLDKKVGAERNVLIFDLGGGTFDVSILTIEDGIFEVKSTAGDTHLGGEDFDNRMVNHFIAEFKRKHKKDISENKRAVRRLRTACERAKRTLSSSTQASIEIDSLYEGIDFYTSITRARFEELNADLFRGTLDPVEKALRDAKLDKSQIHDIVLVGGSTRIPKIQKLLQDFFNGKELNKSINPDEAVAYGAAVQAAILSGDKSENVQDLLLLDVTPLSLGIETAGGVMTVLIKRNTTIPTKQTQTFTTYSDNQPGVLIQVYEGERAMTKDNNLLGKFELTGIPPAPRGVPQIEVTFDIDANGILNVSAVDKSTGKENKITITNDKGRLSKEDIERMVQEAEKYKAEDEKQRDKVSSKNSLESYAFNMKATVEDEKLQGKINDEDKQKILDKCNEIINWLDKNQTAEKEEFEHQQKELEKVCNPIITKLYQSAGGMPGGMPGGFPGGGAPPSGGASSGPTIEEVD

These are yes or no findings as the source states them, for the method shown. Binding seen in cells or lysates may run through a third protein. These calls come from enrichment with a bait or labelling near it, and not all partners need be listed.

The target in assay [1] is HA-tagged TRPM7 (mouse, full length, canonical splice form) (mouse) (UniProt Q923J1). As to the kind of experiment: affinity purification with mass spectrometry; larger scale immunoprecipitation with anti-HA agarose from HEK cells co-expressing TRPM6, TRPM7 and PCDH15; eluates by shotgun tandem mass spectrometry (Thermo Velos ion trap).
Assay [2] addresses HA-tagged TRPM6 (mouse, full length, canonical splice form) (mouse) (UniProt Q8CIR4). The description is as above.

Regarding “human heat shock protein cognate 71 (from UniProt P11142 1-646)”, the binding entry in assay [1] and in assay [2] was “binds” throughout.
